From ChEMBL document CHEMBL3988442, “University of Dundee, Small-Polar-MMV Screening Library” (2021).

By UniProt entry, the sequences of proteins in these tests, tags left out. Residues count along the entry.
UniProt P9WNZ1, whole entry: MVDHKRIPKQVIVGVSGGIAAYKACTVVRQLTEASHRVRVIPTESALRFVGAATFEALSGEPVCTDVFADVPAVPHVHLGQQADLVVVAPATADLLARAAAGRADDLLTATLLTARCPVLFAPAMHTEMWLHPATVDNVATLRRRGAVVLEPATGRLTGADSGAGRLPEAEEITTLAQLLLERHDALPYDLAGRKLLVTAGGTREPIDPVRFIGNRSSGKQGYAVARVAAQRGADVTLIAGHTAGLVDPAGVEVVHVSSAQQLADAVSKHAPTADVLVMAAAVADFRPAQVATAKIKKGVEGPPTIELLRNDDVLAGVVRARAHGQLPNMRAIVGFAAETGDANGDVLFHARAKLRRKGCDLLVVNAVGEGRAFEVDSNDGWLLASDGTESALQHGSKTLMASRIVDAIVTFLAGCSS
UniProt Q4DA54, 1-478: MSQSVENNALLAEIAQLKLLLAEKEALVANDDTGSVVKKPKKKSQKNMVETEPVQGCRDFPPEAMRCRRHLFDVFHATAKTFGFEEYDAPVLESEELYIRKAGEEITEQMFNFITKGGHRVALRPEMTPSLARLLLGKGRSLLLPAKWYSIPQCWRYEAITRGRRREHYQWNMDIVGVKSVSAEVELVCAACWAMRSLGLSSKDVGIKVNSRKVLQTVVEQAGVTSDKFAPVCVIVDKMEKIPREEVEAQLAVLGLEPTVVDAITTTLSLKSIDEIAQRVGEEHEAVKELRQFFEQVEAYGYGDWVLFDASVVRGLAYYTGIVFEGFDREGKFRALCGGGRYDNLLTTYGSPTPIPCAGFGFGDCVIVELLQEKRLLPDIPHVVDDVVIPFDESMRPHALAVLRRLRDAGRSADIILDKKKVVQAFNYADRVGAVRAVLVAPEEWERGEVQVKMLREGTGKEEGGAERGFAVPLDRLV

CoaBC: 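Coenzyme A biosynthesis protein CoaBC, Mycobacterium tuberculosis (UniProt P9WNZ1). Enzyme assay of CoaBC with a phosphate dye (Biomol Green) read at 650 nm. Compounds at 30 µM. Higher reads as stronger inhibition, judged from the few compounds that gave an IC50. Most strong results did not repeat in a second test. Of about 67,000 compounds tested this way, about 40 (0.06%) reached 50% or more in at least one test.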
TcHisRS: 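Enzyme assay of histidyl-tRNA synthetase; the read-out is not stated. Target: Histidine-tRNA ligase, Trypanosoma cruzi CL Brener (UniProt Q4DA54). Concentration: 30 µM. Direction is inferred from retests: higher values go with stronger inhibition. Size under these conditions: about 69,000 compounds, about 31 of them at 50% or above in at least one test.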

Results are given as percent effect. The record does not define 0% and 100%; most values in the screen are far below 50% and negative numbers occur (in some assays of this library far below -100). This is an unselected part of the compounds tested.

* Cc1cccc(CN2CCC3(CCCN(C(=O)c4ccsc4)C3)C2=O)n1 (stereo not drawn) : CoaBC: 2.155%; TcHisRS: 6.522%
* Cc1cc(C)n(C2CCCN(C(=O)CN(C)C3CC3)C2)n1 (stereo not drawn) : CoaBC: -4.242%; TcHisRS: 7.143%
* O=C(CCOc1ccc(Cl)cc1)N1CCN(c2cnccn2)CC1 : CoaBC: 5.007%; TcHisRS: 9.506%
* Cc1ccc(S(=O)(=O)N2Cc3c(CN(C)C)nn(C)c3C2)cc1 : CoaBC: -14.11%; TcHisRS: 4.301%
* Cc1ncccc1NC(=O)[C@@H]1C[C@@H]2CCN(Cc3cccs3)C[C@H]2O1 : CoaBC: 8.629%; TcHisRS: 7.882%
* CN(Cc1cccs1)C(=O)c1ccc(N2CCOCC2)c(F)c1 : CoaBC: 7.025%; TcHisRS: 0.5435%
* Cc1cc(CN2CCN(CC(O)C(C)(C)C)CC2)no1 (stereo not drawn) : CoaBC: 2.571%; TcHisRS: 2.256%
* CCc1nc(CSc2nnc(N)n2C2CC2)no1 : CoaBC: 0.1229%; TcHisRS: 1.19%
* N#Cc1ccc(C(=O)NS(=O)(=O)c2ccc(F)c(F)c2)cc1 : CoaBC: -2.174%; TcHisRS: 5.806%
* CC(C)S(=O)(=O)N1CCC(Cc2cccc(C(=O)O)c2)C1 (stereo not drawn) : CoaBC: -0.2123%; TcHisRS: 0.8%
* Cc1[nH]c2ccc(CNc3cc(C(=O)NC(C)C)ccn3)cc2c1C : CoaBC: 10.61%; TcHisRS: 8.8%
* CN(C)Cc1nc(C2(NC(=O)Nc3ccccc3)CCCC2)no1 : CoaBC: -2.296%; TcHisRS: 6.154%
* COc1ccc(C2C3=C(CCCC3=O)Nc3nc(SC)nc(N)c32)cc1 (stereo not drawn) : CoaBC: 2.211%; TcHisRS: 2.469%
* CN(C)c1cc(CNc2ccc(S(=O)(=O)C(C)(C)C)nc2)ccn1 : CoaBC: 1.053%; TcHisRS: 3.226%
* CC(=O)c1ccc(N2CCC(CO)(CCOc3ccccc3)CC2)nc1 : CoaBC: 5.455%; TcHisRS: 5.021%
* Cc1cc(CN2C[C@@H]3COC[C@]3(CNC(=O)N(C)C)C2)no1 : CoaBC: 3.553%; TcHisRS: 1.97%
* COc1ccccc1C1CNCCN1C(=O)c1ccc(F)cc1 (stereo not drawn) : CoaBC: 9.324%; TcHisRS: 3.383%
* CCOc1ccc(C(F)(F)F)cc1NCc1nc(C)c(C)o1 : CoaBC: 1.489%; TcHisRS: 9.827%
* CC[C@H](C)Cn1nc(C2CCNCC2)n(Cc2ccccc2)c1=O : CoaBC: -2.778%; TcHisRS: 5.102%
* O=C(NCC1CCOCC1)[C@@H]1C[C@@H]2[C@@H](CCN2Cc2nccs2)O1 : CoaBC: 5.176%; TcHisRS: 1.442%
* CNCc1cc(C)n(-c2ccccc2OC)c1C : CoaBC: -3.535%; TcHisRS: 8.772%
* CC(=O)N1CCC(c2ncc(C(=O)Nc3ccc(F)cc3)c(C)n2)CC1 : CoaBC: -10.9%; TcHisRS: -0.565%
* COc1ccc(CN(CCC#N)CCN2CCOCC2)cc1OC : CoaBC: 0.9639%; TcHisRS: 4.95%
* Cc1ccc(C)c(OC2CCN(C(=O)NCC(=O)N3CCCC3)CC2)c1 : CoaBC: 0.2421%; TcHisRS: 7%
* CC(=O)N[C@@H]1CN(C(=O)c2cnc3ccccc3c2)C[C@H]1O : CoaBC: 9.518%; TcHisRS: 5.323%
* c1cnnc(N2CCCC2CNCc2cscn2)c1 (stereo not drawn) : CoaBC: -1.901%; TcHisRS: 5.325%
* CC(=O)N1CCN([C@@H]2CC[C@@H](NC(=O)c3ccc(C)nc3)[C@H]2O)CC1 : CoaBC: 4.358%; TcHisRS: 5.556%
* NC(=O)C1CCN(c2nccc(-c3c[nH]nc3C3CCCCC3)n2)CC1 : CoaBC: 4.217%; TcHisRS: 6.78%
* COCCCNS(=O)(=O)c1cc(C)sc1C : CoaBC: 3.727%; TcHisRS: -2.564%
* Cc1ccc(-c2noc(C(C)NS(C)(=O)=O)n2)cc1 (stereo not drawn) : CoaBC: 1.976%; TcHisRS: 3%
* CCCc1noc(CN2CCCC2c2c(C)nn(C)c2OC)n1 (stereo not drawn) : CoaBC: 4.042%; TcHisRS: 1.132%
* CCCc1noc(C2CC(=O)N(Cc3ccccc3)C2)n1 (stereo not drawn) : CoaBC: 0%; TcHisRS: 3.636%
* COc1ccc(-c2cc(C3CCCCCN3S(C)(=O)=O)on2)cc1 (stereo not drawn) : CoaBC: -4.116%; TcHisRS: -3.39%
* CC(=O)c1ccc(NC(=O)N(CCN(C)C)Cc2ccc(C)s2)cc1 : CoaBC: -26.02%; TcHisRS: 3.191%
* Cc1nn2c(N3CCCC(C#N)C3)cc(-c3ccccc3)nc2c1C (stereo not drawn) : CoaBC: 5.455%; TcHisRS: 9.184%
* CC(c1cccc(S(N)(=O)=O)c1)N(C)CCOC(C)(C)C (stereo not drawn) : CoaBC: -12.87%; TcHisRS: 4.843%
* CCc1nccn1-c1cccc(C2CCN(C(=O)COC)CC2)n1 : CoaBC: 4.326%; TcHisRS: 4.563%
* Cc1cnn(C2CN(c3ccccc3S(=O)(=O)C(F)(F)F)C2)c1 : CoaBC: -1.517%; TcHisRS: 0%
* Cc1nnc(NCCc2coc(-c3ccc(F)cc3)n2)c(C#N)c1C : CoaBC: 4.968%; TcHisRS: 2.041%
* CCc1cnc(N2C[C@H]3C[C@H](C(=O)NC)[C@@H](C2)O3)nc1 : CoaBC: -0.3226%; TcHisRS: 5.473%
* Cc1cnn(CC2CCCN2C(=O)c2ccccc2-n2cccn2)c1 (stereo not drawn) : CoaBC: -0.8696%; TcHisRS: 1.433%
* CNc1cc(CCNC(=O)CC(C)C)nc(-c2ccccn2)n1 : CoaBC: -3.946%; TcHisRS: 1.515%
* COCc1nn(C(C)C)c2c1CCN(Cc1nccs1)C2 : CoaBC: 2.836%; TcHisRS: 3.509%
* COc1ccc(CN2CC[C@@H](O)[C@@H]2Cc2cnn(C)c2)cc1 : CoaBC: 0.75%; TcHisRS: -1.961%

Repeated from the top, 4 entries:

- Cc1cccc(CN2CCC3(CCCN(C(=O)c4ccsc4)C3)C2=O)n1 (stereo not drawn) : CoaBC: 2.155%; TcHisRS: 6.522%
- Cc1cc(C)n(C2CCCN(C(=O)CN(C)C3CC3)C2)n1 (stereo not drawn) : CoaBC: -4.242%; TcHisRS: 7.143%
- O=C(CCOc1ccc(Cl)cc1)N1CCN(c2cnccn2)CC1 : CoaBC: 5.007%; TcHisRS: 9.506%
- Cc1ccc(S(=O)(=O)N2Cc3c(CN(C)C)nn(C)c3C2)cc1 : CoaBC: -14.11%; TcHisRS: 4.301%